{"source": "patent US11117919B2", "about": "“Icariside compound, preparation method thereof, and application thereof” (FOSHAN GOLDEN HEALTH TECHNOLOGY CO., LTD., priority 2015, dated 2021)", "assay_type": "in vivo", "settings": "toxicology research", "description": "Mice weighed 18-22 grams were randomly divided into six groups with 10 mice each group. Each individual group of mice were treated (orally) with: physiological saline, DMSO 2.5 ml/kg, and icariside I: 2000 mg/kg, 1000 mg/kg, 500 mg/kg, 100 mg/kg respectively. […] Therefore, the acute toxicity of icariside I is very low which is safe for use in preparation of pharmaceuticals, health products, food, and cosmetic and skin care products for prevention and treatment of immunity-related diseases.", "note": "Some of these results come from one statement about several compounds together."}
{"smiles": "CC(C)=CCc1c(OC2OC(CO)C(O)C(O)C2O)cc(O)c2c(=O)c(O)c(-c3ccc(O)cc3)oc12", "note": "(stereo not shown) [icariside C]", "values": [{"measurement": "DC50 (toxicity and side effects)", "value": "> 2", "unit": "g/kg body weight"}]}
